PubChem BioAssay AID1259425 | University of Nebraska Medical Center | 2018
This is one part, drawn at random, of about 14,000 deposited reagents. The numbers tell different reagents against one gene apart. Further read-outs or replicates are left out here. No sequences are given here. Not stated in the record: the time to read-out.

Aim: 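Find knockdowns that reproduce the gene expression pattern seen when KSR1 is lost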 (primary screen)
Cell system: HCT116 human colon cancer cells
Reagents: siRNA pool against human genes, 50 nM siRNA
Detection: 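mRNA of six signature genes measured together by branched-DNA assay after 50 nM siRNA pool, blank removed, divided by geometric mean of two housekeeping genes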
Reading the numbers: BNIP3L mRNA: higher = more BNIP3L transcript after knockdown

Gene	reagent	BNIP3L mRNA, set 1
PCYOX1L	1	0.0759
NIPSNAP2	1	0.144
LINC01949	1	0.0695
OR2F1	1	0.156
CBX7	1	0.0671
DNM3	1	0.304
GLI3	1	0.0745
CCL24	1	0.147
GHDC	1	0.153
HHEX	1	0.132
TMEM214	1	0.079
ATP6V1H	1	0.0736
CEP290	1	0.102
CEP290	2	0.105
CHCHD5	1	0.26
STYXL1	1	0.0729
ADAMTS1	1	0.113
NOMO1	1	0.114
KIAA0930	1	0.11
RNF26	1	0.0697
CCDC51	1	0.0949
VIT	1	0.0925
POLDIP2	1	0.0971
PLAC1	1	0.0857
APRT	1	0.0943
AFF4	1	0.15
FOXD2	1	0.147
SYT13	1	0.101
GNGT2	1	0.0364
IKBKB	1	0.388
MRM2	1	0.0583
TUSC2	1	0.182
EPS15	1	0.0964
IRF4	1	0.13
BRCC3	1	0.187
GCM2	1	0.171
ZBTB33	1	0.428
ATP2B4	1	0.127
NYX	1	0.0568
CDH20	1	0.0658
ABHD6	1	0.0839
TMEM164	1	0.214
BBS2	1	0.0462
CCL26	1	0.083
FMOD	1	0.0919
SMIM7	1	0.0519
RAB27B	1	0.0658
MAGT1	1	0.203
CYP4B1	1	0.0857
ESF1	1	0.19
